US6762045B2, “Membrane derived caspase-3, compositions comprising the same and methods of use therefor” (Idun Pharmaceuticals, Inc., priority 2000, dated 2004)
Part of at least one peptide drawing is inferred or uncertain, most often the ends. Peptide text beside a SMILES is read from it.

How the values were obtained:
[1] = test system: cortical cell HM (caspase-1 treated) derived caspase; test: Inhibition of DEVD-amc cleavage, caspase-1 activated E15 brain cortical cell heavy membranes; type: biochemical, mouse
Description: (§1) Caspase activity was measured by mixing 50 μl of an enzyme-containing fraction and 200 μl of 25 μM DEVD-amc (Asp-Glu-Val-Asp-aminomethylcoumarin; SEQ ID NO:6) substrate in ICE buffer (20 mM HEPES, 1 mM EDTA, 0.1% CHAPS, 10% sucrose, 5 mM DTT, pH 7.5) in duplicate Cytoplate wells. Product formation was monitored by the increase in fluorescence (ex=360 nm, em=460 nm) over 1-2 hours at 30° C. using the CytoFluor 4000 plate reader (Perseptive Biosystems, Framingham, Mass.). For kinetic studies, the substrate concentration was varied in the range 1-200 μM. KM values were calculated from these measurements using the equation: […]
(§2) where ΔFL/Δt is the observed initial rate of fluorescence change at substrate concentration [S] and (ΔFL/Δt)MAX is the initial rate of fluorescence change at saturating substrate concentrations. […] Inhibitor IC50 values were determined using the equation: […]
(§3) ΔFL/Δt is the observed initial rate of fluorescence change at inhibitor concentration [I] and (ΔFL/Δt)o is the initial rate fluorescence change for the uninhibited enzyme. […]
(§4) To determine if the presence of membrane derived caspase activity is a general property of mammalian cells, the DEVD-amc cleavage activity in heavy membranes from two other cell sources was measured: mouse E 15 primary brain cortical cells and the mouse dopaminergic MN9D cell line (Choi et al., […] 89:8943-8947, 1992). […]

[2] = target: MN9D HM (caspase-1 treated) derived caspase; test: Inhibition of DEVD-amc cleavage, caspase-1 activated MN9D heavy membranes; type: biochemical, mouse
Description: as §1, §2, §3, §4

[3] = target: T1, recombinant human caspase-3 (r-caspase-3 (His)6) (Homo sapiens, UniProt P42574); test: DEVD-amc cleavage by recombinant caspase-3; type: biochemical; settings: inhibition of DEVD-AMC cleavage, Table III
T1 construct: The large subunit of purified bacterially expressed caspase-3 migrates as a 17-kDa band; purified fully-processed recombinant human caspase-3; His6 (C); made in house; host or cells: E. coli BL21 (DE3), pET21b; Ni2+ chelating column
T1 sequence (P42574 29-175 limits assumed): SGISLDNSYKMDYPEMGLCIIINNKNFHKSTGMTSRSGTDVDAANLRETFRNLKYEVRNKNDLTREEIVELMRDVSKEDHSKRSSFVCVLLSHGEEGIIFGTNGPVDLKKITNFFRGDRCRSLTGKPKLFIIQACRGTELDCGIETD
T1 sequence (P42574 176-277 limits assumed): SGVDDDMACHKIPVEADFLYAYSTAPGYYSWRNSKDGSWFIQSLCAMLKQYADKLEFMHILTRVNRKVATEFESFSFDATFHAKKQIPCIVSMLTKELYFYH
Description: For inhibition studies, 50 μl of the enzyme was pretreated with 150 μl inhibitor for 30 min at room temperature prior to the addition of 50 μl of 50 μM substrate solution.

| SMILES | IC50 [1] | IC50 [2] | IC50 [3] |
| --- | --- | --- | --- |
| CC(=O)N[C@@H](CC(=O)O)C(=O)N[C@@H](Cc1ccccc1)C(=O)N[C@@H](CC(C)C)C(=O)N[C@H](C=O)CC(=O)O [DFLD-ald] (Ac-DFLD-aldehyde; N-terminus assumed) | 2.3 nM | 2.5 nM |  |
| CC[C@H](C)[C@H](NC(=O)[C@H](CCC(=O)O)NC(=O)[C@@H](NC(C)=O)C(C)C)C(=O)N[C@H](C=O)CC(=O)O [VEIDald] (Ac-VEID-aldehyde; N-terminus assumed) |  |  | 32 nM |
| CC(=O)N[C@@H](CC(=O)O)C(=O)N[C@@H](CCC(=O)O)C(=O)N[C@H](C(=O)N[C@H](C=O)CC(=O)O)C(C)C [DEVD-ald] | 1 nM | 0.72 nM |  |
